Data source: PubChem BioAssay AID1259405 (NCATS, 2018)
The deposit covers about 50,000 reagents; this is a random part of them. About 4,000 of them (8%) were called active. 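Mouse siRNA library applied to hamster cells; one well for each siRNA.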 Unmarked entries are inactive. Reagents against one gene are numbered here. No sequences are given here.

Test: 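Mouse-designed siRNAs used to find CHO productivity engineering targets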 (primary screen)
System: Chinese hamster CHO-K1 ovary cells with stable secreted eGFP expression
Knock-down reagent: single siRNA against mouse genes, 0.8 pmol siRNA per well (2 µl of 400 nM stock)
Duration: 3 days
Measurement: 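Per-well intracellular GFP measured by laser scanning cytometry, plus viability from ATP luminescence, each relative to plate median of non-targeting control wells, in %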
Reading the numbers: GFP, % of control: higher = more GFP per well, higher productivity; viability (ATP), % of control: higher = more viable cells (more ATP)
Rule for the call: 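a knock-down is called active if GFP reaches 120% or more of non-targeting control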

no.	Gene	reagent	GFP, % of control	viability (ATP), % of control
1	Vmn1r52	1	54.7	56.4
2	Vmn1r52	2	93.9	42.5
3	Vmn1r52	3	59.5	69.4
4	Cers2	1	60.4	64.2
5	Cers2	2	58.2	56.5
6	Cers2	3	24.9	19.1
7	Slc22a13b	1	108	77.9
8	Slc22a13b	2	71.3	69
9	Slc22a13b	3	71	72.3
10	Pask	1	63.3	61.4
11	3830403N18Rik	1	86.9	93.7
12	3830403N18Rik	2	168 (active)	29.3
13	3830403N18Rik	3	87.3	120
14	Or51f1d	1	90.2	36.9
15	Or51f1d	2	76.1	77.6
16	Or51f1d	3	87.7	91.8
17	Mtif2	1	74.5	55.1
18	Mtif2	2	44	58.2
19	Mtif2	3	109	60.8
20	Endou	1	117	66.2
21	Endou	2	91.6	71.6
22	Endou	3	102	83.9
23	Or51b6	1	102	55.1
24	Or51b6	2	73.1	90.1
25	Or51b6	3	86.3	46.9
26	Rtn4	1	103	68.2
27	Rtn4	2	75.3	97.6
28	Rtn4	3	31.3	47.5
29	Nppc	1	85.4	59
30	Nppc	2	71	104
31	Nppc	3	96.9	58.2
32	Smg9	1	83.6	73.7
33	Smg9	2	110	91.2
34	Smg9	3	51.1	66.2

Limited to “viability (ATP), % of control”, for 5 of the entries above:
Mtif2 #3 = 60.8
Endou #1 = 66.2
Endou #2 = 71.6
Endou #3 = 83.9
Or51b6 #1 = 55.1
